This is an account of results in publication doi:10.1101/798884.

The chains behind the UniProt entries cited, without tags or fusion partners.
UniProt P35637: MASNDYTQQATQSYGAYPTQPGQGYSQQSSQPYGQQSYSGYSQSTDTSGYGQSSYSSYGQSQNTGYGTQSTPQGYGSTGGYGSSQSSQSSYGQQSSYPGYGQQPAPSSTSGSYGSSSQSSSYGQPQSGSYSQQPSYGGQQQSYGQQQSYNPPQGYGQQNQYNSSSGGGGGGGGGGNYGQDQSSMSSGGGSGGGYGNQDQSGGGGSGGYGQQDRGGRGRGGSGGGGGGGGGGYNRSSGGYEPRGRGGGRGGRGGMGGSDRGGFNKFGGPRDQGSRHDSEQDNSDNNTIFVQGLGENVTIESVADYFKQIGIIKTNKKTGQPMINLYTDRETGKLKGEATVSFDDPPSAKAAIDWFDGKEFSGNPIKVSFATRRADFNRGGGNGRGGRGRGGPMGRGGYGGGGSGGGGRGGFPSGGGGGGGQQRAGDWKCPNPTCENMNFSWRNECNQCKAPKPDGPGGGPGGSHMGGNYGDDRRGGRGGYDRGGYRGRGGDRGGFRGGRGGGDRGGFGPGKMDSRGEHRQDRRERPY
UniProt Q12905: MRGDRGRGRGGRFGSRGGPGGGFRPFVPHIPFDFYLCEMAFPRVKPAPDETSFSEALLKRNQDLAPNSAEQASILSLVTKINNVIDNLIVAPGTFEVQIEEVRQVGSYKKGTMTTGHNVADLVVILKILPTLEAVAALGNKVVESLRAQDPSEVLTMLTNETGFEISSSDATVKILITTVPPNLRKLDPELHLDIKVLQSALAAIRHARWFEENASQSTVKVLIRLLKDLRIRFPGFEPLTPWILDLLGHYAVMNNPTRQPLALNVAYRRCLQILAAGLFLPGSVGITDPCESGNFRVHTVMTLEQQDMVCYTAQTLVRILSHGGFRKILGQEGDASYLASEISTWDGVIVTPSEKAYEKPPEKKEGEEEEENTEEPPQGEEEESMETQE
UniProt P13010: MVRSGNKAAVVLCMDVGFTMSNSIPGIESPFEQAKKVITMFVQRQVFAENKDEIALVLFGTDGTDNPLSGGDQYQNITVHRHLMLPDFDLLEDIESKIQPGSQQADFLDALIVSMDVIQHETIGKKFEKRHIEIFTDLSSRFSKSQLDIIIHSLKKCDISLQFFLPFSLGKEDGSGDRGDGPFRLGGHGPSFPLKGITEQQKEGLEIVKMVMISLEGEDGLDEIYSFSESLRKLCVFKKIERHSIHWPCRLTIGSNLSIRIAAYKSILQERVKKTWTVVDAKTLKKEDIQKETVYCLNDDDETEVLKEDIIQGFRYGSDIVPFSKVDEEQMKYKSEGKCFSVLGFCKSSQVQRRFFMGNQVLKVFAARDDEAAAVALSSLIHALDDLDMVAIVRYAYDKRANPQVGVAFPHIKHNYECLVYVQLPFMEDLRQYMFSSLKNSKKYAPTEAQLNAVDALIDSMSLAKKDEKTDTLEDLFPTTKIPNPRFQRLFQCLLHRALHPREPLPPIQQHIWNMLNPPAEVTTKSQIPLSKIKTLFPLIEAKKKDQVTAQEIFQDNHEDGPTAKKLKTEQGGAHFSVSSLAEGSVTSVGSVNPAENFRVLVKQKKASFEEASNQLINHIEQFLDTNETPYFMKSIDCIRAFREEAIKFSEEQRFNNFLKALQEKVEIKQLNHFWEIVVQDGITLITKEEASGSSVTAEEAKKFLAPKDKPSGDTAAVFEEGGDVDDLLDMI

These are yes or no findings as the source states them, for the method shown. Binding seen in cells or lysates may run through a third protein. These calls come from enrichment with a bait or labelling near it, and not all partners need be listed.

The test deals with Flag-tagged FUS (Fused-in-sarcoma) (UniProt P35637). Kind of test: affinity purification with mass spectrometry.

As to ILF2 (from UniProt Q12905 1-390), the binding result was “binds”.
XRCC5/KU80 (from UniProt P13010 1-732): the binding result was “binds”.

B1: MATR3 (protein, UniProt P43243 1-847)
chain: MSKSFQQSSLSRDSQGHGRDLSAAGIGLLAAATQSLSMPASLGRMNQGTARLASLMNLGMSSSLNQQGAHSALSSASTSSHNLQSIFNIGSRGPLPLSSQHRGDADQASNILASFGLSARDLDELSRYPEDKITPENLPQILLQLKRRRTEEGPTLSYGRDGRSATREPPYRVPRDDWEEKRHFRRDSFDDRGPSLNPVLDYDHGSRSQESGYYDRMDYEDDRLRDGERCRDDSFFGETSHNYHKFDSEYERMGRGPGPLQERSLFEKKRGAPPSSNIEDFHGLLPKGYPHLCSICDLPVHSNKEWSQHINGASHSRRCQLLLEIYPEWNPDNDTGHTMGDPFMLQQSTNPAPGILGPPPPSFHLGGPAVGPRGNLGAGNGNLQGPRHMQKGRVETSRVVHIMDFQRGKNLRYQLLQLVEPFGVISNHLILNKINEAFIEMATTEDAQAAVDYYTTTPALVFGKPVRVHLSQKYKRIKKPEGKPDQKFDQKQELGRVIHLSNLPHSGYSDSAVLKLAEPYGKIKNYILMRMKSQAFIEMETREDAMAMVDHCLKKALWFQGRCVKVDLSEKYKKLVLRIPNRGIDLLKKDKSRKRSYSPDGKESPSDKKSKTDGSQKTESSTEGKEQEEKSGEDGEKDTKDDQTEQEPNMLLESEDELLVDEEEAAALLESGSSVGDETDLANLGDVASDGKKEPSDKAVKKDGSASAAAKKKLKKVDKIEELDQENEAALENGIKNEENTEPGAESSENADDPNKDTSENADGQSDENKDDYTIPDEYRIGPYQPNVPVGIDYVIPKTGFYCKLCSLFYTNEEVAKNTHCSSLPHYQKLKKFLNKLAEERRQKKET
For B1, the binding result was “binds”.
